Laboratory results taken from US12514938B2, “Fibroblast activation protein targeting peptides” (PERSPECTIVE THERAPEUTICS, INC., priority 2023, dated 2026).
For some assays here: At least one peptide structure holds a part that was inferred or is arguable (an end, a ring closure or a residue). For some assays here: For at least one compound, name, drawing or mass did not settle the structure. *1 amine or outer side, *2 acyl side, *3 side chain or, on linkers, in order; H or OH if unused. Where a SMILES comes first, the peptide text is derived from it. Bridges are numbered along the chain shown (N, C = ends). Side-chain parts run from the residue outwards. The star is where a group is joined. X1 = NC(=O)CN1CCN(CC(=O)O)CCN(CC(=O)*)CCN(CC(=O)O)CC1; oXylylene = c1ccc(C[*:2])c(C[*:1])c1; PEG2 = NCCOCCOCCC(=O)O

How the values were obtained:
[1] = target: T1, Human Fibroblast Activation Protein (FAP) (Homo sapiens, UniProt Q12884); assay: Enzyme inhibition assay against human FAP (substrate Z-GP-AMC), Example 1; assay type: biochemical; settings: human FAP 5 ng/well, 50 μM Z-GP-AMC; Ki from IC50 by Cheng-Prusoff
T1 sequence (Q12884 1-760): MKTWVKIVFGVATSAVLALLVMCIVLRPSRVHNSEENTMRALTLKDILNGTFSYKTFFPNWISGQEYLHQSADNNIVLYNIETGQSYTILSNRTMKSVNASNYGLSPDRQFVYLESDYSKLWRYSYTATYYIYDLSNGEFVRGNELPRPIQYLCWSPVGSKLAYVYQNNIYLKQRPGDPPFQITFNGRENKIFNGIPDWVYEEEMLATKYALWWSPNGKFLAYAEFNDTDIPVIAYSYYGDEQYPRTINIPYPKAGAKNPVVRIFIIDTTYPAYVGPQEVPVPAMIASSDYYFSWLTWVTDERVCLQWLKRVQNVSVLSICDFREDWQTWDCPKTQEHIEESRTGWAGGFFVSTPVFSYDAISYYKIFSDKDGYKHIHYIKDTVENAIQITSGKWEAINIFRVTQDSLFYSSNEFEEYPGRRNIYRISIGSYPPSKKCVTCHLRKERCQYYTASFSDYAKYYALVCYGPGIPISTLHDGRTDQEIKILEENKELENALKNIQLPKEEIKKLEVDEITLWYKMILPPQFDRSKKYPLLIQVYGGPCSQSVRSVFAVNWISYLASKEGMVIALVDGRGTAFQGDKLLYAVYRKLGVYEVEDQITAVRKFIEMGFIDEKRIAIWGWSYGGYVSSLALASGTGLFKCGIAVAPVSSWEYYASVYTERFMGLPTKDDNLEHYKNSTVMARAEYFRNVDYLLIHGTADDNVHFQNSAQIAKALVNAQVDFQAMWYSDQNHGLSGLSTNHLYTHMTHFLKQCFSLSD
Description: Binding Affinity Against Human Fibroblast Activation Protein (FAP)
An enzyme inhibition assay was performed to determine IC50 values and then the Cheng-Prusoff equation used to calculate the Ki given a known Km of the substrate Z-GP-AMC for FAP. To perform the assay, FAP (5 ng/well) and the test peptide at varying concentrations (i.e. 10^−6 to 10^−12) were incubated in a black 96-well plate for 10 minutes at RT on a shaker plate. Then, the substrate Z-GP-AMC was added to give a final concentration of 50 μM. The total reaction volume per well was 100 μL The reaction was allowed to incubate at RT on a shaker plate for 1 hour protected from light, and then fluorescence read with a BioTek Synergy LX plate reader at an ex/em (360/40 and 460/40). Experiments were performed in at least duplicate, and controls of buffer only, buffer and FAP enzyme, and buffer with substrate and FAP enzyme only were included for comparison. The buffer used for the assay was 50 mM Tris-HCl, 1M NaCl, and 1 mg/mL BSA, pH=7.5. Data was plotted in GraphPad Prism and non-linear regression used to calculate IC50 values. The compounds tested and Ki values of each were as follows: […]

U87MG tumor xenograft = assay: Radiotherapeutic efficacy in human glioma xenograft model; assay type: in vivo, athymic nude mice; settings: 4.6 MBq over three fractionated doses, 40 days

Row | SMILES | Ki [1] [pM] | Tumor growth (tumor volume) (U87MG tumor xenograft)
1 | CC(=O)N[C@@H](CO)C(=O)N[C@H]1CSCc2ccccc2CSC[C@@H](C(=O)N[C@@H](CCCCNC(=O)CCOCCOCCNC(=O)CN2CCN(CC(=O)O)CCN(CC(N)=O)CCN(CC(=O)O)CC2)C(N)=O)NC(=O)[C@H](Cc2c[nH]c3ccccc23)NC(=O)[C@H](Cc2c[nH]c3ccccc23)NC(=O)[C@H](CCC(N)=O)NC(=O)[C@H](CCC(=O)O)NC(=O)[C@H](Cc2ccccc2)NC(=O)[C@@H]2CCCN2C(=O)[C@H]([C@@H](C)O)NC1=O [VMT-FAP-2-26, Ac-S-[C(oXdB)TPFEQWWC]-Lys(NH2)-PEG2-PSC] (Ac-SCTPFEQWWCK([PEG2-X1])-NH2; linker 2-10 via oXylylene; C-terminus assumed) | 380 | 
2 | C[C@@H](O)[C@@H]1NC(=O)[C@@H](NC(=O)CCOCCOCCNC(=O)CN2CCN(CC(=O)O)CCN(CC(N)=O)CCN(CC(=O)O)CC2)CSCc2ccccc2CSC[C@@H](C(N)=O)NC(=O)[C@H](Cc2c[nH]c3ccccc23)NC(=O)[C@H](Cc2c[nH]c3ccccc23)NC(=O)[C@H](CCC(N)=O)NC(=O)[C@H](CCC(=O)O)NC(=O)[C@H](Cc2c[nH]c3ccccc23)NC(=O)[C@@H]2CCCN2C1=O [[^212Pb]VMT-FAP-2-59, metal not drawn] ({X1-PEG2}-CTPWEQWWC-NH2; linker 1-9 via oXylylene) |  | significant inhibition on growth of U87MG tumor xenograft
